PubChem BioAssay AID504793, Drosophila RNAi Screening Center – 2011
The screen tested about 23,000 reagents; this is an unselected part of those with a known target gene and a result. Of all reagents, 62 (0.27%) were called active. 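Calls come from follow-up tests whose scores are not deposited, so confirmed genes may have low counts here; counts are not normalised per plate.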 Raw values are not corrected between plates. Unmarked entries are inactive. A plus sign joins genes that one reagent is predicted to hit.

Test: 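Knock-downs allowing continued mitosis even though DNA is damaged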 (primary screen)
System: Drosophila S2R+ cells
Reagent: long dsRNA against Drosophila genes, about 0.25 µg dsRNA per well
Time to read-out: 4 days of dsRNA, then 4 hours of drug before read-out
Treatment: doxorubicin 0.5 µM for 4 hours to cause double-strand breaks, in cells also given a low, harmless dose of dsRNA against nbs to sensitise the assay
Measured: 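Per-well count of mitotic cells stained for phospho-histone H3 after doxorubicin exposure, used as mitotic index; counts are raw and not normalised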
Reading the numbers: mitotic cells: higher = more cells in mitosis, weaker G2 arrest
Active means: 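Genes are called active only when high mitotic counts were reproduced with independent dsRNAs and mitosis was checked for delay without damage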
Meaning of the calls: active = confirmed in follow-up tests; inactive = not confirmed

gene	dsRNA	mitotic cells, replicate 1
CG33107	DRSC21898	11
Ctf4	DRSC06380	7
CR33318	DRSC22949	6
CG8034	DRSC20076	4
CG8034	DRSC29895	5
comm2	DRSC10877	8
Jhe	DRSC07174	9
Jhe	DRSC29206	2
Cwc25	DRSC26038	5
Sur-8	DRSC15794	11
CG10948	DRSC09806	4
Oscillin	DRSC03001	10
Oscillin	DRSC29150	3
CG11791	DRSC14391	7
CG11791	DRSC29499	3
Rhau	DRSC03200	3
Rhau	DRSC27042	9
Tnpo	DRSC11309	3
Tnpo	DRSC25104	1
Dus3	DRSC02059	6
Dus3	DRSC30102	1
SkpB	DRSC07683	3
SkpB	DRSC25160	8
Pebp1	DRSC15354	7
CG13437	DRSC06397	8
CG8298	DRSC07138	3
RN-tre	DRSC07521	5
RN-tre	DRSC28214	3
CG10343	DRSC02041	1
CG10343	DRSC27740	6
Src42A	DRSC04915	6
Src42A	DRSC36641	10
Arv1	DRSC11491	9
dachs	DRSC02072	5
dachs	DRSC02191	1
dachs	DRSC26121	3
dachs	DRSC28403	4
Dph5	DRSC16653	3
Dph5	DRSC27824	11
Ir94c	DRSC13539	8
phtm	DRSC20237	7
phtm	DRSC26997	5
Prp31	DRSC10735	5
Asx	DRSC23408	3
beat-IIIc	DRSC02438	3
beat-IIIc	DRSC02949	5
Tsp42Eb + CG30160	DRSC04961	4
Tsp42Eb + CG30160	DRSC06791	5
CG13154	DRSC06279	4
CG7031	DRSC23028	12
CG7031	DRSC25813	18
CG8249	DRSC07125	5
Gr64c	DRSC08445	8
Gr64c	DRSC27568	4
CG6048	DRSC18398	11
CG6048	DRSC29218	4
Rab9D + Rab9E + Rab9Db + 1 more	DRSC27303	3
Obp83cd	DRSC12267	8
CG4712	DRSC06882	4
HP1e	DRSC16379	3
CG12511	DRSC02171	6
Cda9	DRSC06593	10
CG42506 (retired record) + CG43759	DRSC19464	4
CG42506 (retired record) + CG43759	DRSC19543	7
CG42506 (retired record) + CG43759	DRSC26393	6
CG43316	DRSC06296	5
CG43316	DRSC06297	4
CG43316	DRSC28460	1
CG13685	DRSC10043	3
CG13685	DRSC30064	11
CG3746	DRSC04412	2
CG3746	DRSC30050	8
CG34135 + Nasp	DRSC16397	5
ppk12	DRSC04086	3
twit	DRSC03210	5
twit	DRSC30028	13

Laid out differently: results already given
gene,dsRNA,"mitotic cells, replicate 1"
Obp83cd,DRSC12267,8
CG4712,DRSC06882,4
HP1e,DRSC16379,3
CG12511,DRSC02171,6
Cda9,DRSC06593,10
CG42506 (retired record) + CG43759,DRSC19464,4
CG42506 (retired record) + CG43759,DRSC19543,7
CG42506 (retired record) + CG43759,DRSC26393,6
CG43316,DRSC06296,5
CG43316,DRSC06297,4
